Reference: PubChem BioAssay AID1347423 (Functional Genomics Laboratory (NCATS/FGL), 2020)
About 210 (0.4%) of roughly 52,000 sequences were called active.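 Rule for the calls: active = gene whose silencing raises cell survival under the drug, median off-target-corrected z-score across its silencing RNAs 2 or more; inactive = the rest.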 The list shows a part of the results.

Experiment: Resistance to Poly (ADP-Ribose) Polymerase inhibitor: Gene Identification via Genome-wide siRNA Screen
Details: mouse BRCA2 R2336H ES cells, olaparib, CellTiter-Glo viability; active compounds read high
In short: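 Genome-wide siRNA screen (3 siRNAs/gene, 20 nM) in mouse ES cells carrying hypomorphic BRCA2 R2336H; olaparib 500 nM added 48 h post-transfection, CellTiter-Glo viability 72 h later. Normalized to plate-median negative control; MAD z-scores, gene median, seed-adjusted.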

| Sequence | z-score |
| --- | --- |
| CCAAGAGGAAAGCAUAGAUTT against Fliih | inactive: -0.808 |
| GGGCUGCAUUACACAAAUGTT against Olfr1496 | inactive: 0.0704 |
| GCAGGUCAACUGUUUUAUCTT against Bcap31 | inactive: 1.06 |
| GGUAUUCGUGGAGUGGAGATT against 6030457N17Rik | inactive: 0.1 |
| GACAGCAACGUGAAAUUAGTT against Xlr | inactive: 0.888 |
| GCAACGGACUUCCUCUCACTT against A630047E20Rik | inactive: 0.592 |
| GGACUGUCCUCCAAUUUGCTT against Cml3 | inactive: -0.556 |
| GGAUGUAAACGAAUGUGCUTT against Lrp4 | inactive: -0.14 |
| GGAGAGUCUCCAGACUUUGTT against Ixl | inactive: 1.33 |
| GGGUCAGAGUUUUUCCAUCTT against Otog | inactive: 0.692 |
| CGUCAAGAUCAAUAACUUGTT against LOC214403 | inactive: -0.419 |
| GGAGCAGCUGCACUUGUAUTT against Nkiras1 | inactive: -0.838 |
| GGACACUAUGCAAUCACCCTT against Ubce7ip1 | inactive: 1.03 |
| GGAUACACUGAUACUAUACTT against Pwp2h | inactive: -0.394 |
| GGAACUUGAUCCUCAAUUUTT against 1110002E23Rik | inactive: 1.74 |
| CCAUGGCAGGCAAUUUGAUTT against Olfr1254 | inactive: -0.282 |
| GGCUGUUUUCUGUGCUACATT against Olfr298 | inactive: 4.07 |
| CCAGUACGAUUUCUCUCGATT against 2310057J16Rik | inactive: 0.977 |
| GGCUCAGGCAUUGUCCUGUTT against Il10ra | inactive: 0.31 |
| GGACAGAAUGGACCUCUUCTT against B230113M03Rik | inactive: -1.22 |
| CGAGUUCAAACCGUCCUCUTT against Sdhc | inactive: -0.413 |
| CGGCUCGUUGAAGAACAAATT against 2600003E23Rik | inactive: -1.87 |
| CCCUAAAACCAGGUAUCAATT against Vdac1 | inactive: 0.0164 |
| GUAUAUCUUUGGCUGGGUGTT against Olfr460 | inactive: -1.13 |
| GCGAUGUUAGUAAUACAACTT against Six1 | inactive: -2.06 |
| CGUCUCUGAUAUUGUCGGCTT against Fbl | inactive: -1.98 |

| Sequence | z-score |
| --- | --- |
| UAUUAAACUCUUGAGACCGTT against Oxa1l | inactive: -0.271 |
| GCUGGUAGCAUUCUUAUCCTT against Xylt2 | inactive: 1.5 |
| GGACAGUGUCUAGAUAUUGTT against Fbln5 | inactive: -0.266 |
| GGAGAAGAGAGUAUUUAAUTT against 2310069P03Rik | inactive: 0.547 |
| CGUGUUAUGACAAAAGAGGTT against Defb39 | inactive: 0.962 |
| GGUUCGUGUGGUUUAACAUTT against Afg3l1 | inactive: 0.554 |
| GGUGGAUAGAGCAAUUGAATT against Jph1 | inactive: -0.483 |
| GGAAAUACUCAUCAAGUCUTT against Phldb2 | inactive: -1.05 |
| GAGGCUCUGUGGAAUUUUATT against Olfr1217 | inactive: 1.65 |
| CCUGCUGCUUAUUAAAGUUTT against Bckdk | inactive: 1.45 |
| GGCUCUGUCUCUUAAUGGGTT against Gpx5 | inactive: 0.933 |
| GGAGGAUCCACGAUUACUUTT against Ifnt1 | inactive: -1.38 |
| CGUACAGUGAUGAUUUUGATT against 4922501C03Rik | inactive: 1.45 |
| CCUAUAAUCCCAGAGAAAATT against Cobll1 | inactive: -0.731 |
| GGCCAAGGUGAGAGUACUGTT against Hsd3b5 | inactive: -0.796 |
| GGUCUCCACUGAGGACUGUTT against Ndufa2 | inactive: -0.746 |
| GGGUAAAUCCUUCAUUCUGTT against 5730596K20Rik | inactive: 0.869 |
| CCUGGAGGUGACCGCUUUATT against Cdc20 | inactive: -1.11 |
| GGUGGAUACACAGGACAAATT against Invs | inactive: -0.32 |
| GCACAAUUUCGUGUGAGCUTT against Sfxn5 | inactive: -0.969 |
| GGACGAACUCAUCAACAGUTT against Gtf2ird1 | inactive: 1.42 |
| GCCUGUCAUUAAUCUGACATT against 9030409G11Rik | inactive: -0.774 |
| CGACGAAGAUUCUGACAAUTT against Gpr153 | inactive: 1.63 |
| GGAGUAAACGACAAAAUGGTT against Gosr1 | inactive: -0.845 |
| GGUGGUGACAGGAACCUCUTT against A630029F06 | inactive: 0.29 |
| GCCCGCAUUUUGGAAACUCTT against Lmbr1 | inactive: -0.114 |

| Sequence | z-score |
| --- | --- |
| GGCUGAACUUCUUUCCAAGTT against Cd209b | inactive: 0.0468 |
| GAGCCACUUUCUCAAGUGUTT against Pou3f1 | inactive: 0.933 |
| GGAGCUCUGUCAUGAGUUUTT against AI427652 | inactive: 1.43 |
| CGUUGGUACCAAGAAGUACTT against Snai3 | inactive: -0.942 |
| GCCAUAUCUGUCCAAGUUATT against Sdf2l1 | inactive: -0.182 |
| GGUCCAAAAGUGACAUAUATT against Ddx4 | inactive: -0.934 |
| GGACAGGUAAAAAUUUAGGTT against 9330128H10Rik | inactive: 0.803 |
| GGUGAACUGUCAUAACUGGTT against Synj2 | inactive: -1.62 |
| GCAUCCUUUGUCGAAGUGGTT against Mrcl | inactive: -1.21 |
| GGACCGACUUCGUCUCACUTT against 4931419P11Rik | inactive: 2.98 |
| GGAGAUGACUGAUUUGAAGTT against Ccnb3 | inactive: 0.835 |
| UGAUGAUGGGUGUGGUUGUTT against Olfr887 | inactive: -1.26 |
| GCAUCGACAACCUCUCUAGTT against Hba-x | inactive: 2.62 |
| GGUAACUUCAGUCUUGUUATT against BC031575 | inactive: -0.358 |
| GGAUAAGUACACGCUUCCCTT against Sox2 | inactive: 0.69 |
| GGUCAUCGAUCACAUUGAUTT against Thbs4 | inactive: 0.201 |
| GGUCAAUCAUUUCUAUGUUTT against Pdcd6 | inactive: 0.354 |
| GGUUUUCCGGACCAAAAUUTT against Rasa3 | inactive: 1.21 |
| GGGAGUAAAGAAAAUGUUATT against Sca2 | inactive: 0.383 |
| GCAUGAGUUAGACCAUAAUTT against Phf12 | inactive: 0.679 |
| GGAAGUGUUGGCUAUUUUUTT against Kctd10 | inactive: 1.35 |
| GGAGGAGUGUUGUAUCUGCTT against Rnf141 | inactive: 0.37 |
| GGGCUUUGAGAGCAUCUUATT against Card15 | inactive: 1.08 |
| GGUCUCUCGGACUUUUUCCTT against Adipor1 | inactive: 2.71 |
| GGCUGAUGCAGACAGUUUCTT against Brap | inactive: -0.807 |
| GGAUAACCCUGUAAUGAUATT against Dctn4 | inactive: -0.983 |

| Sequence | z-score |
| --- | --- |
| GGAGGACAAGGAGGAUGACTT against Samd10 | inactive: -1.53 |
| GGACCUUUGUUGUCAGUCATT against Zfp319 | inactive: -0.856 |
| GGUUAUUCAGCUCCUUAAATT against Paxip1 | inactive: -1.08 |
| GGAAUUCACAGAUACCGUGTT against Guca1a | inactive: -0.248 |
| GGUCGAUUUGUCCUUGUGCTT against 2400009B11Rik | inactive: -0.772 |
| GGAGAAUGGCCACGUAAAATT against Marcks | inactive: -0.285 |
| CCGAGUUCCUUCAACAUGCTT against Hoxb7 | inactive: -0.447 |
| CGAUCCCUGUCUGUUGGAUTT against 9230105I15Rik | inactive: 0.387 |
| UUGAAAAGUUCGGAACUGATT against Gm253 | inactive: -0.318 |
| GGAUGACCAACAUUUUACATT against Ptprf | inactive: 0.406 |
| GCCAAUCUGAACUUGUGUUTT against 1600029D21Rik | inactive: -0.0458 |
| GGGACAUCCGGAAUAUUUGTT against Endogl1 | inactive: 0.322 |
| GGGAAUUUGCUCCUGAAGGTT against Pcdhb8 | inactive: 0.373 |
| GGUCAUUUUGGGAUAUCAGTT against Lman1 | inactive: 2.5 |
| GGCCAGCAAAACAAAUGACTT against Slc34a2 | inactive: -0.153 |
| GGUUGGAAUGCACACGAAATT against Tmem34 | inactive: -0.444 |
| GGUUUAACUUUAAUGAUGGTT against Cacna1e | inactive: -0.729 |
| GGAAAGUGUCACCAAGUUCTT against B230359F08Rik | inactive: -0.0496 |
| GCAGGUGGUUAUCAACUGUTT against Vasp | inactive: 0.301 |
| GGUCACCACUCCAUAUUCUTT against 4632428N05Rik | inactive: 0.514 |
| GGGACACGAUGAGGAGUCATT against 1810043G02Rik | inactive: -0.202 |
| GCAGGUGAAAUAAAGAAGGTT against 4930550B20Rik | inactive: -0.129 |
| CCACCAUGUAUCUUUGAGUTT against 1700123O20Rik | inactive: 0.978 |
| CGGAACAAAUGUCUUGGGCTT against Kcnrg | inactive: -0.207 |
| GGACUAAAAAAAGUAGUGUTT against Abca5 | inactive: -0.0767 |
| GGAGGGUGUCAUUUUGCCATT against Slc8a3 | inactive: -1.15 |

Some of the entries above in another layout:
Sequence | z-score
GGUUAUUCAGCUCCUUAAATT against Paxip1 | inactive: -1.08
GGAAUUCACAGAUACCGUGTT against Guca1a | inactive: -0.248
GGUCGAUUUGUCCUUGUGCTT against 2400009B11Rik | inactive: -0.772
GGAGAAUGGCCACGUAAAATT against Marcks | inactive: -0.285
CCGAGUUCCUUCAACAUGCTT against Hoxb7 | inactive: -0.447
CGAUCCCUGUCUGUUGGAUTT against 9230105I15Rik | inactive: 0.387
UUGAAAAGUUCGGAACUGATT against Gm253 | inactive: -0.318
GGAUGACCAACAUUUUACATT against Ptprf | inactive: 0.406
GCCAAUCUGAACUUGUGUUTT against 1600029D21Rik | inactive: -0.0458
GGGACAUCCGGAAUAUUUGTT against Endogl1 | inactive: 0.322
GGGAAUUUGCUCCUGAAGGTT against Pcdhb8 | inactive: 0.373
GGUCAUUUUGGGAUAUCAGTT against Lman1 | inactive: 2.5
GGCCAGCAAAACAAAUGACTT against Slc34a2 | inactive: -0.153
GGUUGGAAUGCACACGAAATT against Tmem34 | inactive: -0.444
GGUUUAACUUUAAUGAUGGTT against Cacna1e | inactive: -0.729
GGAAAGUGUCACCAAGUUCTT against B230359F08Rik | inactive: -0.0496
GCAGGUGGUUAUCAACUGUTT against Vasp | inactive: 0.301
GGUCACCACUCCAUAUUCUTT against 4632428N05Rik | inactive: 0.514
GGGACACGAUGAGGAGUCATT against 1810043G02Rik | inactive: -0.202
GCAGGUGAAAUAAAGAAGGTT against 4930550B20Rik | inactive: -0.129
CCACCAUGUAUCUUUGAGUTT against 1700123O20Rik | inactive: 0.978
CGGAACAAAUGUCUUGGGCTT against Kcnrg | inactive: -0.207
GGACUAAAAAAAGUAGUGUTT against Abca5 | inactive: -0.0767
